According to patent US20180279615A1 (priority 2015, published 2018):
Some of these results come from one statement about several compounds together.

Assays:
Pyricularia oryzae = type: cell-based; conditions: 32 ppm; measured at 405 nm 7 days after inoculation; relative to active compound-free control (100%)
Botrytis cinerea [1] = experiment: Activity against the grey mold Botrytis cinerea in the microtiterplate test; type: cell-based; conditions: 32 ppm; measured at 405 nm 7 days after inoculation; relative to active compound-free control (100%)
Botrytis cinerea [2] = experiment: Green house: long lasting control of Botrytis cinerea on leaves of green pepper; type: in vivo; conditions: 250 ppm active substance; green pepper sprayed 7 days before inoculation; assessed after 5 days at 22 to 24° C.; untreated plants 100% diseased leaf area

Cc1cc(C2=NC(C)(C)C(C)c3ccccc32)cnc1C (stereo not drawn) [I-1, 1-(5,6-dimethyl-3-pyridyl)-3,3,4-trimethyl-4H-isoquinoline]
growth of the pathogen (Pyricularia oryzae): at most 17% | growth of the pathogen (Botrytis cinerea [1]): at most 1% | diseased leaf area (Botrytis cinerea [2]): at most 17%
